Data on 4 molecules can be found in PMC11789017, “Preventing inappropriate signals pre- and post-ligand perception by a toggle switch mechanism of ERECTA” (Proceedings of the National Academy of Sciences of the …, 2025).

Changes are numbered by the printed parent chain. No constants are given. Whether binding was seen depends on the method and setting. Binding seen in cells or lysates may run through a third protein. Some entries that bind do so weakly or less than the wild type. Sequences can lack the tags named with a protein.

The target of assay [1] is T1, ER_(T/S8A)-FLAG, phosphonull version (Arabidopsis protoplasts) (Arabidopsis) (UniProt Q42371).
T1 sequence: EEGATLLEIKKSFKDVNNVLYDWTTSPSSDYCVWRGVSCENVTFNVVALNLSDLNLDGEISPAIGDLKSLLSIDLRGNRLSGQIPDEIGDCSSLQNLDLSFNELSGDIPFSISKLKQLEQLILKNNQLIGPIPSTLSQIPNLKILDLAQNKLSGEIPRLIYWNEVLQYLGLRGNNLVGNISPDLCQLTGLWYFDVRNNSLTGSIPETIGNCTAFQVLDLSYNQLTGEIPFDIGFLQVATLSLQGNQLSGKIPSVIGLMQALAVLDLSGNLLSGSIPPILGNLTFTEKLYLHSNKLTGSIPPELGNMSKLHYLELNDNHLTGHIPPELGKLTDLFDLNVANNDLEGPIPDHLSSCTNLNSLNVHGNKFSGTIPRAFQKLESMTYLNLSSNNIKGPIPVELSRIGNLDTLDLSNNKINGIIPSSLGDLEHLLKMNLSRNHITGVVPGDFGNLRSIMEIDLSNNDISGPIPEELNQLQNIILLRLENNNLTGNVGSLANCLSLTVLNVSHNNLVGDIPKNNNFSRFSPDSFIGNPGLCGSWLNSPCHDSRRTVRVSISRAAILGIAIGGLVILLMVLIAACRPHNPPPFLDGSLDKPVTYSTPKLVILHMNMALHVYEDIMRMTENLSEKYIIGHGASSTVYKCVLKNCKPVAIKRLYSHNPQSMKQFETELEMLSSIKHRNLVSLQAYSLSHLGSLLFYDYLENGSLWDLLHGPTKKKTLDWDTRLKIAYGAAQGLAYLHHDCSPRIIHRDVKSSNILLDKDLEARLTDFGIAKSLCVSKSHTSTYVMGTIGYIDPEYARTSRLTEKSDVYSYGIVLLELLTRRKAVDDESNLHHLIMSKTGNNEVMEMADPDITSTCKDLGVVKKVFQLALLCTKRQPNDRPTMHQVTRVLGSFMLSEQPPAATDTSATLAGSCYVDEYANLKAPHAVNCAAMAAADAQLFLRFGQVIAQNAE
The assay can be described thus: co-IP; Arabidopsis protoplasts cotransfected with PUB30-MYC or PUB31-MYC and FLAG-tagged ER variants; 5 micromolar EPFL6 for 1 h; anti-FLAG beads, blots with anti-FLAG and anti-MYC.

The target in assay [2] is T2, ER_(T/S8E)-FLAG, phosphomimetic version (Arabidopsis protoplasts) (Arabidopsis) (UniProt Q42371).
T2 sequence: T1 sequence with A923E, A926E, A930E, A931E, A933E, A935E, A948E, A951E
The assay is described as above.

The target in assay [3] is T3, ER-FLAG (Arabidopsis protoplasts) (Arabidopsis) (UniProt Q42371).
T3 sequence: T1 sequence with A923T, A926S, A930S, A931S, A933S, A935S, A948S, A951S
The assay is described as above.

The target in assay [4] is T4, PUB30-YFP (PUB30pro::PUB30-YFP, transgenic Arabidopsis) (UniProt Q058P4).
T4 sequence: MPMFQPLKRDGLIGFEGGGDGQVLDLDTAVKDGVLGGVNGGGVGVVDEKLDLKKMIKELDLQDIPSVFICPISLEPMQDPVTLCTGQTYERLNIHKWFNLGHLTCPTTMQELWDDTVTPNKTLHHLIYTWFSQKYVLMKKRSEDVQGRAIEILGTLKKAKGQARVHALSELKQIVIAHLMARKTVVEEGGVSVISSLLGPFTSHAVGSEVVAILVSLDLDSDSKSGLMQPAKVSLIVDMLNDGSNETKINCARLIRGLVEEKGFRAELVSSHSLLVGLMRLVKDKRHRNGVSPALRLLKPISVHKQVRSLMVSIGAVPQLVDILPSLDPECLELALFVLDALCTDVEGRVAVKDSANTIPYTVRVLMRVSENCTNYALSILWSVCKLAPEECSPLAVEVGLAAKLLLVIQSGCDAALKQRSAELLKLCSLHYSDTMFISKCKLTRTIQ
The assay can be described thus: co-IP; transgenic Arabidopsis plants carrying PUB30pro::PUB30-YFP and FLAG-tagged ER variants; anti-GFP beads, blots with anti-GFP and anti-FLAG.

In assay [5] the target is T5, ER-FLAG (ERpro::ER-FLAG, transgenic Arabidopsis) (Arabidopsis) (UniProt Q42371).
T5 sequence: T1 sequence with A923T, A926S, A930S, A931S, A933S, A935S, A948S, A951S
The assay can be described thus: co-IP; double transgenic Arabidopsis plants carrying ERpro::BKI1-YFP and FLAG-tagged ER variants; anti-FLAG beads, blots with anti-FLAG and anti-GFP; seedlings also treated with MEPF2 peptide (association decreased).

Assay [6] deals with T6, ER_(T/S8A)-FLAG, phosphonull version (transgenic Arabidopsis) (Arabidopsis) (UniProt Q42371).
T6 sequence: T1 sequence
The assay is described as above.

B1: GST-PUB30 (U-box E3 ligase PUB30) (enzyme)
chain: T4 sequence
For B1, the binding result in assay [1] is reported as “binds weakly”; in assay [2] it was “binds”; in assay [3], “binds”.

B2: ER-FLAG (ERpro::ER-FLAG, transgenic Arabidopsis) (receptor, UniProt Q42371 25-976)
chain: T1 sequence with A923T, A926S, A930S, A931S, A933S, A935S, A948S, A951S
Turning to B2, the binding entry in assay [4] is recorded as “binds”.

B3: PUB31-MYC (Arabidopsis protoplasts) (enzyme, UniProt Q9FHN9 1-444)
chain: MPMFQPSKNGGFDGHILDLHSAVKDGVLGGGDGKFLVVVTDEKKKLDLKEMISELELPEIPSVFICPISLEPMQDPVTLCTGQTYERSNILKWFNIGHCTCPTTMQELWDDLVTPNKTLHQLIYTWFSQKYVLMKKRSEDVQGRAIEILGTLRKAKGKAKVHALSELKQVVMAHAIAKKTVVDEGGVFVISSLLSPFTSHAVGSEAIAILVNLELDSDSKAGLMQPARVSLMVDMLNDGSIETKINCARLIGRLVEEKGFRAELVSSHSLLVGLMRLVKDRRRRNGVSPALTLLKSVSVHKQVRNLLVRIGAVPQLVDVLPCLDVECLESALFVLDSLCLESEGRIALKDSVNTIPHTVRLLMKVSEKCTNYAISILWSVCKLASEECSSLAVEVGLAAKLLLVIQSGCDPALKQRSAELLKLCSLHYSDSMFISKCKLTRTIQ
On to B3, for which the binding result in assay [1] is given as “binds weakly”; in assay [2], “binds”; in assay [3] it was “binds”.

B4: GST-BKI1 (BRI1 KINASE INHIBITOR 1) (natural protein, UniProt Q9FMZ0 1-337, looked up)
chain: METNLQQVKNSSQTFSEKQNPKQEASPSPISSTCSSPSHDFSFTISLQPLSSSSKHISPTLRSPSKTTSSYQQTDPFAVDLSPADEIFFHGHLLPLHLLSHLPVSPRTSTGSYNDGFTLPVKDILPDQPTNNNNNTENAITNISTEAKDDNTEDKAEGEIRVKTKPIKSFSLFGLSKWRKGFESNEREQEQQQQKIKKPMSLDLSHAVKKYIRMLFQKRGNGTQFWNRRQTSSYSFSSSLMGPNGNSKTMINGSYNKRDLIRGRRGELFSAPASMRTSPTNSGHLRVSTAGLSSSSGSTSSSSSDSTMEELQAAIQAAIAHCKNSSAVDRDDKVKDS
notes: Tag end from the order of the printed name; source: recombinantly purified; not shown: GST, N-terminal, kept
Turning to B4, the binding result in assay [5] and in assay [6] was “binds” each time.
